The target in assay [1] is GST/PfAtg18syn (Plasmodium falciparum) (UniProt Q8IJR6). In words: far-Western, overlay or dot blot.
The target is the same in assay [2]. The experiment in a line: ELISA.

Results are given in words; binding and its absence hold for the method and conditions named. Binding calls can cover weak binding; strength is not graded here. Sequences can lack the tags named with a protein.

B1: GST/MDRID (domain or fragment, UniProt Q7K6A5 341-788)
chain: TEYMKALEATNSLYEIINRKPLVENNDDGETLPNIKKIEFKNVRFHYDTRKDVEIYKDLSFTLKEGKTYAFVGESGCGKSTILKLIERLYDPTEGDIIVNDSHNLKDINLKWWRSKIGVVSQDPLLFSNSIKNNIKYSLYSLKDLEAMENYYEENTNDTYENKNFSLISNSMTSNELLEMKKEYQTIKDSDVVDVSKKVLIHDFVSSLPDKYDTLVGSNASKLSGGQKQRISIARAIMRNPKILILDEATSSLDNKSEYLVQKTINNLKGNENRITIIIAHRLSTIRYANTIFVLSNRERSDNNNNNNNDDNNNNNNNNNNKINNEGSYIIEQGTHDSLMKNKNGIYHLMINNQKISSNKSSNNGNDNGSDNKSSAYKDSDTGNDADNMNSLSIHENENISNNRNCKNTAENEKEEKVPFFKRMFRRKKKAPNNLRIIYKEIFSYKKD
As to B1, the binding entry in assay [1] is reported as “no binding (tested: 2.5 µg/ml)”.

B2: GST/MDRCD (domain or fragment, UniProt Q7K6A5 1054-1419)
chain: KRGTILVDDFMKSLFTFIFTGSYAGKLMSLKGDSENAKLSFEKYYPLMIRKSNIDVRDDGGIRINKNLIKGKVDIKDVNFRYISRPNVPIYKNLSFTCDSKKTTAIVGETGSGKSTFMNLLLRFYDLKNDHIILKNDMTNFQDYQNNNNNSLVLKNVNEFSNQSGSAEDYTVFNNNGEILLDDINICDYNLRDLRNLFSIVSQEPMLFNMSIYENIKFGREDATLEDVKRVSKFAAIDEFIESLPNKYDTNVGPYGKSLSGGQKQRIAIARALLREPKILLLDEATSSLDSNSEKLIEKTIVDIKDKADKTIITIAHRIASIKRSDKIVVFNNPDRNGTFVQSHGTHDELLSAQDGIYKKYVKLAK
For the molecule B2, the binding result in assay [1] and in assay [2] was “binds” in each case.

The values are drawn from publication doi:10.1101/2020.10.02.323600.
